According to paper PMC11131071:
No constants are given. Whether binding was seen depends on the method and setting. Binding seen in cells or lysates may run through a third protein. A yes stands for co-enrichment or nearness to the bait. Other partners may have been found.

Target: T1, ABCG2 (human (endogenous in MCF-7/MX and H460/MX)) (UniProt Q9UNQ0)
T1 sequence: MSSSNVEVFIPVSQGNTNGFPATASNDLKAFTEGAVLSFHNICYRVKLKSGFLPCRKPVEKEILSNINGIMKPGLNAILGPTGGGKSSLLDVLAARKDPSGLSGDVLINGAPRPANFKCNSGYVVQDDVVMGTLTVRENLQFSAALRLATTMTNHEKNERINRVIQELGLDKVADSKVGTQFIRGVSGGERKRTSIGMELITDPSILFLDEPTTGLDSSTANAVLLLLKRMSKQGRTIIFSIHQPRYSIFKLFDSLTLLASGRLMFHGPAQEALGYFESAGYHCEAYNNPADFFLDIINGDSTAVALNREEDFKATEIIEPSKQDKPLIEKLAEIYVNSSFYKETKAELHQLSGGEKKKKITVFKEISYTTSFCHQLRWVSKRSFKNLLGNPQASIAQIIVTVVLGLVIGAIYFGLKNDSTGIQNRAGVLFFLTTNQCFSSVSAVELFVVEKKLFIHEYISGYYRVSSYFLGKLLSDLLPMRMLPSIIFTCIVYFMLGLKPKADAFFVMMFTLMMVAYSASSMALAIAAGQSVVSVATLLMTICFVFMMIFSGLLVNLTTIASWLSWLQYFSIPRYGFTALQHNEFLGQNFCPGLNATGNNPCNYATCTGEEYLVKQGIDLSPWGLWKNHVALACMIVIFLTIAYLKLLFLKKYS
Experiment: affinity purification with mass spectrometry; lysates of MCF-7 and MCF-7/MX cells immunoprecipitated with the anti-ABCG2 antibody MXP-21; SDS-PAGE, silver staining; bands predominant in MCF-7/MX excised and analysed by mass spectrometry

- binding: binds
B1: SLC1A5 (protein, UniProt Q15758 1-541)
chain: MVADPPRDSKGLAAAEPTANGGLALASIEDQGAAAGGYCGSRDQVRRCLRANLLVLLTVVAVVAGVALGLGVSGAGGALALGPERLSAFVFPGELLLRLLRMIILPLVVCSLIGGAASLDPGALGRLGAWALLFFLVTTLLASALGVGLALALQPGAASAAINASVGAAGSAENAPSKEVLDSFLDLARNIFPSNLVSAAFRSYSTTYEERNITGTRVKVPVGQEVEGMNILGLVVFAIVFGVALRKLGPEGELLIRFFNSFNEATMVLVSWIMWYAPVGIMFLVAGKIVEMEDVGLLFARLGKYILCCLLGHAIHGLLVLPLIYFLFTRKNPYRFLWGIVTPLATAFGTSSSSATLPLMMKCVEENNGVAKHISRFILPIGATVNMDGAALFQCVAAVFIAQLSQQSLDFVKIITILVTATASSVGAAGIPAGGVLTLAIILEAVNLPVDHISLILAVDWLVDRSCTVLNVEGDALGAGLLQNYVDRTESRSTEPELIQVKSELPLDPLPVPTEEGNPLLKHYRGPAGDATVASEKESVM
